The test deals with endogenous Oct-2 in MutuI cells (human (endogenous in MutuI)) (UniProt P09086). Description: co-IP; endogenous proteins; MutuI cells treated with 5 µg/mL TGF-β; NP-40 lysis buffer; precipitated with anti-Oct-2 rabbit antibody or control antibody, immunoblot with anti-BZLF1. A general note: Immunoblotting shows a protein as a band on a membrane.

Sequences of proteins named here, by UniProt entry; tags and fusion partners are left off.
UniProt P09086: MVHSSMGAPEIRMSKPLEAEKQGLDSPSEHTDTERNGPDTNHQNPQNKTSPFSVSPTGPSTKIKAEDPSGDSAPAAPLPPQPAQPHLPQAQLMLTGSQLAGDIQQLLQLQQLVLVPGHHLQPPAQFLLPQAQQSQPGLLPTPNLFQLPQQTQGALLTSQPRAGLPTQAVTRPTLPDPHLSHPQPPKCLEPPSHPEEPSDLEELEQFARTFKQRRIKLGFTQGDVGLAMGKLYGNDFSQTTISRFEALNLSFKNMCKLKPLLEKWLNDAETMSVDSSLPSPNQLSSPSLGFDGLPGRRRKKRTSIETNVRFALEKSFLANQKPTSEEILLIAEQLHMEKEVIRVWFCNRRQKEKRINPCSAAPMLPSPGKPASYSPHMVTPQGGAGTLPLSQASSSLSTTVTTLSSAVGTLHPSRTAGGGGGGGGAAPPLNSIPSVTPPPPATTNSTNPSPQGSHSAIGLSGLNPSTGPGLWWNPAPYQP
UniProt P03206: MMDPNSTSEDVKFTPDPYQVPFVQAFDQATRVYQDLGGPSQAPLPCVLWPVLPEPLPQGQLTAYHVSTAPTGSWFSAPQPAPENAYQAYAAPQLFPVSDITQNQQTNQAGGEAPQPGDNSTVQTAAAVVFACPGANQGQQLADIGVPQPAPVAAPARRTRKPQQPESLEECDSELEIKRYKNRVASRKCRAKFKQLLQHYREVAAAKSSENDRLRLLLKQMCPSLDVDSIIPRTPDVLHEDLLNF

No constants are given. Whether binding was seen depends on the method and setting. Binding seen in cells or lysates may run through a third protein. Some entries that bind do so weakly or less than the wild type.

In the case of “endogenous BZLF1 in lytically infected MutuI cells (from UniProt P03206 1-245)”, the binding result is “binds”.

The values above are taken from paper PMC3276558, “The B-Cell Specific Transcription Factor, Oct-2, Promotes Epstein-Barr Virus Latency by Inhibiting the Viral Immediate-Early Protein, BZLF1”.
